Results on 5 molecules are retold here after publication PMC11427100.

The chains behind the UniProt entries cited, without tags or fusion partners.
UniProt Q6R891: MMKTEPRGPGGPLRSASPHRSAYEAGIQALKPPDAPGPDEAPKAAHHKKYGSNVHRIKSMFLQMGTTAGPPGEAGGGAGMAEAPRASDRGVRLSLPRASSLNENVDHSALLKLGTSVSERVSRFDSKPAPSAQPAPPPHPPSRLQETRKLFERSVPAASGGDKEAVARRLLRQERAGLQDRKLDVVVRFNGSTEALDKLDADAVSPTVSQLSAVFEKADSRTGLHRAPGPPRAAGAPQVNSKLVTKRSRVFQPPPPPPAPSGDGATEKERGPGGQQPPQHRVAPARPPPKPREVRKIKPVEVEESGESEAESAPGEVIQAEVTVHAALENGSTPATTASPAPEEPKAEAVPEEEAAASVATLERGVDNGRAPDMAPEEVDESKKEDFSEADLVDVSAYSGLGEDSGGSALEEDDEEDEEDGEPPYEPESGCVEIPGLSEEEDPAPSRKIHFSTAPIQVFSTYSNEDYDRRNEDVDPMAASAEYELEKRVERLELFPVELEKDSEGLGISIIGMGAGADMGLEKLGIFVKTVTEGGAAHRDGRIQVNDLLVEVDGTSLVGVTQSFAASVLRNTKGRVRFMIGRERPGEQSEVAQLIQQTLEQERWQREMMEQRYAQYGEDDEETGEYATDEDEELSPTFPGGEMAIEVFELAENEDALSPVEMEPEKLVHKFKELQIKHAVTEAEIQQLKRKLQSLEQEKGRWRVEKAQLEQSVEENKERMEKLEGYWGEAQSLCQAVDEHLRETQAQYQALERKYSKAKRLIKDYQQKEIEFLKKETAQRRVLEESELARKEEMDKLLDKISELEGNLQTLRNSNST

In assay [1] the target is Spinophilin (mouse (endogenous in pancreas and isolated islets)) (UniProt Q6R891). Put plainly: affinity purification with mass spectrometry; spinophilin immunoprecipitated from islets isolated from three WT and one Spino^-/- mice; label-free, spectral counting.
Assay [2] has the same target. The experiment in a line: affinity purification with mass spectrometry; spinophilin immunoprecipitated from pancreas of WT chow-fed, WT high-fat diet-fed and Spino^-/- high-fat diet-fed male mice; on-bead digestion, TMT10plex; hits filtered by WT/KO log2 fold-enrichment of 0.5 and two unique peptides, listed hits increased in HFF vs. lean.

These are yes or no findings as the source states them, for the method shown. Binding seen in cells or lysates may run through a third protein. Here binding means that the protein was enriched with, or labelled near, the bait; the list need not be complete.

B1: Kxd1 (protein, UniProt Q80XH1 1-177)
chain: MDTPDSASRVFCGRFLSMVNTDDVNAIILAQKNMLDRFEKTNEMLLNFNNLSSVRLQQMSERFMHHTRTLVDMKRDLDSIFRRIRTLKGKLARQHPEAFSHIPEGSFLEDEDEDPIPPSITTTIATSEQSTGSCDTSPDTVSPSLSPGFEDLSHIQPGSPAINGHRQTDDEEETHEE
As for B1, in assay [1], the binding entry was “binds”.

B2: Amy2 (protein, UniProt P00688 16-508)
chain: QYDPHTSDGRTAIVHLFEWRWVDIAKECERYLAPKGFGGVQVSPPNENVVVHNPSRPWWERYQPISYKICTRSGNEDEFRDMVTRCNNVGVRIYVDAVINHMCGAGNPAGTSSTCGSYLNPNNREFPAVPYSAWDFNDNKCNGEIDNYNDAYQVRNCRLTGLLDLALEKDYVRTKVADYMNHLIDIGVAGFRLDAAKHMWPGDIKAVLDKLHNLNTKWFSQGSRPFIFQEVIDLGGEAIKGSEYFGNGRVTEFKYGAKLGTVIRKWNGEKMSYLKNWGEGWGLVPSDRALVFVDNHDNQRGHGAGGSSILTFWDARMYKMAVGFMLAHPYGFTRVMSSYRWNRNFQNGKDQNDWIGPPNNNGVTKEVTINADTTCGNDWVCEHRWRQIRNMVAFRNVVNGQPFSNWWDNNSNQVAFSRGNRGFIVFNNDDWALSATLQTGLPAGTYCDVISGDKVDGNCTGLRVNVGSDGKAHFSISNSAEDPFIAIHADSKL
For B2, in assay [1], the binding result is listed as “binds”.

B3: Lyz1 (protein, UniProt P17897 19-148)
chain: KVYNRCELARILKRNGMDGYRGVKLADWVCLAQHESNYNTRATNYNRGDRSTDYGIFQINSRYWCNDGKTPRSKNACGINCSALLQDDITAAIQCAKRVVRDPQGIRAWVAWRTQCQNRDLSQYIRNCGV
Take B3: in assay [1], the binding result is listed as “binds”.

B4: Unconventional myosin-Id (protein, UniProt Q5SYD0 1-1006)
chain: MAEQESLEFGKADFVLMDTVSMPEFMANLRLRFEKGRIYTFIGEVVVSVNPYKVLNIYGRDTVEQYKGRELYERPPHLFAIADAAYKAMKRRSKDTCIMISGESGAGKTEASKYIMQYIAAITNPSQRAEIERVKNMLLKSNCVLEAFGNAKTNRNDNSSRFGKYMDINFDFKGDPIGGHINNYLLEKSRVIVQQPGERSFHSFYQLLQGGSEQMLHSLHLQKSLSSYNYIRVGAQLKSSINDAAEFKVVADAMKVIGFKPEEIQTVYKILAVILHLGNLKFIVDGDTPLIENGKVVSVIAELLSTKADMVEKALLYRTVATGRDIIDKQHTEQEASYGRDAFAKAIYERLFCWIVTRINDIIEVKNYDTTIHGKNTVIGVLDIYGFEIFDNNSFEQFCINYCNEKLQQLFIQLVLKQEQEEYQREGIPWKHIDYFNNQIIVDLVEQQHKGIIAILDDACMNVGKVTDGMFLEALNSKLGKHGHFSSRKTCASDKILEFDRDFRIRHYAGDVVYSAIGFIDKNKDTLFQDFKRLMYNSSNPVLKNMWPEGKLSITEVTKRPLTAATLFKNSMIALVDNLASKEPYYVRCIKPNDKKSPQIFDDERCRHQVEYLGLLENVRVRRAGFAFRQTYEKFLHRYKMISEFTWPNHDLPSDKEAVKKLIERCGFQDDVAYGKSKIFIRTPRTLFTLEELRAQMLVRVVLFLQKVWRGTLARMRYKRTKAALTIIRYYRRYKVKSYIHEVARRFHGVKNMRDYGKHVKWPTPPKVLRRFEEALQSIFNRWRASQLIKTIPASDLPQVRAKVAAMEMLKGQRADLGLQRAWEGNYLASKPDTPQTSGTFVPVANELKRKDKYMNVLFSCHVRKVNRFSKVEDRAIFVTDRHLYKMDPTKQYKVMKTIPLYNLTGLSVSNGKDQLVVFHTKDNKDLIVCLFSKQPTHESRIGELVGVLVNHFKSEKRHLQVNVTNPVQCSLHGKKCTVSVETRLNQPQPDFTKNRSGFILSVPGN
As to B4, in assay [2], the binding result is “binds”.

B5: Slc25a5 (protein, UniProt P51881 1-298)
chain: MTDAAVSFAKDFLAGGVAAAISKTAVAPIERVKLLLQVQHASKQITADKQYKGIIDCVVRIPKEQGVLSFWRGNLANVIRYFPTQALNFAFKDKYKQIFLGGVDKRTQFWRYFAGNLASGGAAGATSLCFVYPLDFARTRLAADVGKAGAEREFKGLGDCLVKIYKSDGIKGLYQGFNVSVQGIIIYRAAYFGIYDTAKGMLPDPKNTHIFISWMIAQSVTAVAGLTSYPFDTVRRRMMMQSGRKGTDIMYTGTLDCWRKIARDEGSKAFFKGAWSNVLRGMGGAFVLVLYDEIKKYT
As for B5, the binding entry in assay [1] is recorded as “binds”.
